Drawing on publication PMC11161467, this text covers binding for 1 molecule.

Chains of the proteins cited; added tags and fusions are not shown.
UniProt Q64010: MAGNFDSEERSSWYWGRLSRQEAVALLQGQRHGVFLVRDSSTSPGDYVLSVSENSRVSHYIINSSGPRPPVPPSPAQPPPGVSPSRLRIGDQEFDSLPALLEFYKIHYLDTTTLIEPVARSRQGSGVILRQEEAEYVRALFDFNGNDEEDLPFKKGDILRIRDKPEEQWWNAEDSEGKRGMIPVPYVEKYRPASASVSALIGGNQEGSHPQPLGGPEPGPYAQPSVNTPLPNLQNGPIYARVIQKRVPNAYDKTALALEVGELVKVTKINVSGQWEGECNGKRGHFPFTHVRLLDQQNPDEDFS

These are yes or no findings as the source states them, for the method shown. Binding seen in cells or lysates may run through a third protein. Some results given as binding are weak or reduced against the parent protein; the word gives no strength.

For this experiment, the target named is CrkII (mouse (endogenous in bone marrow macrophage-derived preosteoclasts)) (UniProt Q64010). The experiment in a line: co-IP; Dynabeads Protein A immunoprecipitation from lysates of WT and Siglec-15-/- prefusion osteoclasts, starved 1 h in alpha-MEM, then 10 ng/mL M-CSF for 0, 1, 5 or 20 min; immunoblot; which antibody precipitated is not told. On the technique in general: Immunoblotting shows a protein as a band on a membrane.

B1: p130Cas (protein, UniProt Q61140 1-874)
chain: MTVPNVLAKALYDNVAESPDELSFRKGDIMTVLERDTQGLDGWWLCSLHGRQGIVPGNRLKILVGMYDKKPVGPGPGPPATPPQPQPSLPQGVHAPVPPASQYSPMLPTAYQPQSDNVYLVPTPSKTQQGLYQAPGPNPQFQSPPAKQTSTFSKQTPHHSFPSPATDLYQVPPGPGSPAQDIYQVPPSAGIGHDIYQVPPSLDTRGWEGTKPPAKVVVPTRVGQGYVYEAAQTEQDEYDTPRHLLAPGPQDIYDVPPVRGLLPNQYGQEVYDTPPMAVKGPNGRDPLLDVYDVPPSVEKGLLSSSHHSVYDVPPSVSKDVPDGPLLREETYDVPPAFAKPKPFDPTRHPLILAAPPPDSPAAEDVYDVPPPAPDLYDVPPGLRRPGPGTLYDVPRERVLPPEVADGSVVDDGVYAVPPPAEREAPTDGKRLSASSTGSTRSSQSASSLEVVVPGREPLELEVAVESLARLQQGVSTTVAHLLDLVGSASGPGGWRGTSEPQEPPAQDLKAAVAAVHGAVHELLEFARGAVSNATHTSDRTLHAKLSRQLQKMEDVYQTLVVHGQVLDSGRGSPGFTPEDLDRLVACSRAVPEDAKQLASFLHGNASLLFRRTKAPGPGPEGSSSLHPNPTDKASSIQSRPLPSPPKFTSQDSPDGQYENSEGGWMEDYDYVHLQGKEEFEKTQKELLERGNIMRQGKGQLELQQLKQFERLEQEVSRPIDHDLANWTPAQPLVPGRTGGLGPSDRQLLLFYLEQCEANLTTLTDAVDAFFTAVATNQPPKIFVAHSKFVILSAHKLVFIGDTLSRQAKAADVRSQVTHYSNLLCDLLRGIVATTKAAALQYPSPSAAQDMVDRVKELGHSTQQFRRVLGQLAAA
Consider B1, for which the binding entry is recorded as “binds”.
